Calls as published in the ROBIN set (doi:10.1002/anie.202211358).

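Compounds were printed on reactive glass slides in duplicate spots, a dye-labelled oligonucleotide was laid over them, and the fluorescence left after washing was read. For the PreQ1, TPP and SAM-II riboswitches the laboratory earlier reported (doi:10.1038/s41467-019-09493-3) 1 µM RNA, 2 h, and a rule that included a mean Z-score above 3 (spot signal-to-noise against the whole library), a score well above that on a control array, and duplicate spots agreeing (coefficient of variation under 100). The data file gives only the calls; its cut-offs may differ, and compounds hitting several targets are kept. The calls come from the array alone, and fixing a compound to the slide can hide its binding.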 A compound is marked active if it was called a hit and inactive if it was screened but was not. The compounds are a random part of those screened. A target missing from an entry has no call listed here.

Targets, with sequences 5′ to 3′:
PreQ1: PreQ1 riboswitch RNA pseudoknot, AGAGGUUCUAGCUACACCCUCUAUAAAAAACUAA. From B. subtilis. About 24,000 compounds screened, about 170 hits.
SAM-II: SAM-II riboswitch RNA pseudoknot, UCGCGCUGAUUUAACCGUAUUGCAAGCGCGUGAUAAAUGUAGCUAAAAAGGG. About 21,000 compounds screened, about 200 hits.

Calls for CC(C)Cc1cc(-c2cn(CC3(CO)CCOCC3)nn2)n[nH]1 are PreQ1: inactive; SAM-II: inactive. With Cc1ccccc1SCC(=O)N1CCN(Cc2ccccc2CO)CC1 the screen gave PreQ1: inactive; SAM-II: inactive. For Cc1nc(Nc2ccc(F)cc2)nc2c1nnn2-c1ccc(F)cc1 the calls were PreQ1: inactive; SAM-II: inactive. Cc1ccccc1Nc1nc(-c2ccncc2)cs1 was scored PreQ1: inactive; SAM-II: inactive. CCc1cc(C(=O)N2CCC3(CCCN(CCO)C3=O)C2)cc(=O)[nH]1 (stereo not shown) was scored PreQ1: inactive; SAM-II: inactive. With Cc1cccc(C(NC(=O)c2cn(CCN3CCNCC3)nn2)C2CC2)n1 (stereo not shown) the screen gave PreQ1: inactive; SAM-II: inactive. Cc1ccc(CNC(=O)c2nnn(Cc3cccc(C(F)(F)F)c3)c2N)cc1 was scored PreQ1: inactive; SAM-II: inactive.

Calls for O=C1C=CC=CC1=C1NC(=C2C=CC=CC2=O)N(c2ccc(C(=O)O)cc2)N1 are PreQ1: inactive; SAM-II: inactive. With N#Cc1c(-c2cccc(O)c2)c(C#N)c2nc3ccccc3n2c1N the screen gave PreQ1: inactive; SAM-II: inactive. CCC(NC(=O)c1noc(C)c1CO)c1nc(C)c(C)s1 (stereo not shown) was scored PreQ1: inactive; SAM-II: inactive. With CCCN1CCC(NC(c2ccncc2)c2ccccc2C)CC1 (stereo not shown) the screen gave PreQ1: inactive; SAM-II: inactive. With CC1CCN(c2c(NCC3CCC(C(=O)N4CCCCC4)CC3)c(=O)c2=O)CC1 (stereo not shown) the screen gave PreQ1: inactive. With NC(=O)C[n+]1ccn2c(NC3CCCCC3)c(-c3ccc(N4CCOCC4)cc3)nc2c1 the screen gave PreQ1: inactive; SAM-II: inactive. With CCOC(=O)Nc1ccc(NCc2ccc(F)cc2)nc1N the screen gave PreQ1: inactive; SAM-II: inactive.

Calls for Cc1ccc2nc(-c3ccccn3)c(Nc3ccccc3)n2c1 are PreQ1: inactive; SAM-II: inactive. For CC1Cc2ccccc2N1CC(O)COc1ccc(-c2ccccc2)cc1 (stereo not shown) the calls were PreQ1: inactive; SAM-II: inactive. For N=c1c2c3c(sc2ncn1CCO)CCCC3 the calls were PreQ1: inactive; SAM-II: inactive. c1ccc(CSc2nc3ncncc3[nH]2)cc1 was scored PreQ1: inactive; SAM-II: inactive. For CC[n+]1cn(CC(O)COc2ccccc2)c2ccccc21 (stereo not shown) the calls were PreQ1: inactive; SAM-II: inactive. Calls for OCc1ccc(-c2nccn2CCc2nc(-c3ccncc3)n[nH]2)o1 are PreQ1: inactive; SAM-II: inactive. Calls for CCCCSc1ncnc2[nH]ncc12 are PreQ1: inactive; SAM-II: inactive.

Calls for CCC(C)(Oc1ccc(C2(c3ccc(OC(C)(CC)C(=O)O)cc3)CCCCC2)cc1)C(=O)O (stereo not shown) are PreQ1: inactive; SAM-II: inactive. With O=C1c2cc([N+](=O)[O-])ccc2-c2cc(Br)c(/N=C(\NO)C(F)(F)F)cc21 the screen gave PreQ1: inactive; SAM-II: active. CCOC(=O)C1CCCN(c2c(Nc3cc(C)cc(C)c3)c(=O)c2=O)C1 (stereo not shown) was scored PreQ1: inactive. Calls for Cc1cc(C)n(-c2nc(C)c(C(=O)N(CCO)Cc3ccccc3)s2)n1 are PreQ1: inactive. O=C(c1ccc(CO)cc1)N1C[C@@H]2CC[C@H](C1)N(CC1CCC1)C2 was scored PreQ1: inactive; SAM-II: inactive. Calls for COC(=O)C1=C(C)OC(N)=C(C#N)C1c1ccccc1I (stereo not shown) are PreQ1: inactive; SAM-II: inactive. Calls for COc1nc(N)nc2c1ncn2[C@@H]1O[C@H](CO)[C@@H](O)[C@@H]1O are PreQ1: inactive; SAM-II: inactive.

Cn1c(C(=O)N2CCCC(N)CC2)cc2cc(F)ccc21 (stereo not shown) was scored PreQ1: inactive; SAM-II: inactive. COCCc1ccc(OCc2ccc(-c3cnc(N)nc3)cc2)cc1 was scored PreQ1: inactive; SAM-II: inactive. Calls for CSc1nc(NC(C)C(=O)O)c(C#N)c(-c2ccc(C)cc2)n1 (stereo not shown) are PreQ1: inactive. For CCCOCC1CC2(CC(C)(c3csc(Nc4ccccc4OC)n3)OC2=O)C(=O)O1 (stereo not shown) the calls were PreQ1: inactive; SAM-II: inactive. For CCCc1nnc(NC(=O)CNCc2nnc3n2CCCCC3)s1 the calls were PreQ1: inactive; SAM-II: inactive. Cl.NCC12CC3CC(CC(Cl)(C3)C1)C2 was scored PreQ1: inactive; SAM-II: inactive. With CCCc1[nH]nc2c1C(c1cc(OC)c3c(c1)OCO3)C(C#N)=C(N)O2 (stereo not shown) the screen gave PreQ1: inactive; SAM-II: inactive.

Calls for O=C(CC1COCCN1)NCCc1nc(-c2ccccn2)no1 (stereo not shown) are PreQ1: inactive; SAM-II: inactive. Calls for Cc1cccc(C#Cc2ccccc2)n1 are PreQ1: inactive; SAM-II: inactive. Calls for CC(C)(C)c1cnc(CSc2cnc(NC(=O)C3CCNCC3)s2)o1 are PreQ1: inactive; SAM-II: inactive. With CC(=O)c1ccccc1Nc1c(C(C)=O)nnn1-c1ccc(Cl)cc1 the screen gave PreQ1: inactive. With CCOC(=O)C1CCN(c2c(Nc3ccc(F)cc3)c(=O)c2=O)CC1 the screen gave PreQ1: inactive; SAM-II: inactive. With CSc1ccc(CN(CCO)Cc2c(C)cc(C)c(CO)c2C)cc1 the screen gave PreQ1: inactive; SAM-II: inactive. CCc1n[nH]c2c1C1(C(C#N)=C(N)O2)c2ccccc2-c2ccccc21 was scored PreQ1: inactive; SAM-II: inactive.

For Cc1ccc([C@@H]2C[C@H](c3cccc(Cl)c3)n3nc(N)nc3N2)cc1 the calls were PreQ1: inactive; SAM-II: inactive. For Cc1cccc(Nc2nc(N)nc(CN3CCCC3c3ccc(F)cc3)n2)c1 (stereo not shown) the calls were PreQ1: inactive; SAM-II: inactive. With COc1ccc2c(c1)OCC(Cc1cc(N)ncn1)C2 (stereo not shown) the screen gave PreQ1: inactive; SAM-II: inactive.

The last 3 entries again:

{"smiles": "Cc1ccc([C@@H]2C[C@H](c3cccc(Cl)c3)n3nc(N)nc3N2)cc1", "PreQ1": "inactive", "SAM-II": "inactive"}
{"smiles": "Cc1cccc(Nc2nc(N)nc(CN3CCCC3c3ccc(F)cc3)n2)c1", "stereo": "stereo not shown", "PreQ1": "inactive", "SAM-II": "inactive"}
{"smiles": "COc1ccc2c(c1)OCC(Cc1cc(N)ncn1)C2", "stereo": "stereo not shown", "PreQ1": "inactive", "SAM-II": "inactive"}